Patent US6492116
The exact form of at least one protein or probe is not confirmed.

System: p53D30 + GST-hdm2(1-188) (G-M) ternary complex (Homo sapiens)
Assay: EMSA
Conditions: ternary p53D30-G-M-DNA complex, same binding buffer, 30 min 22 C; hdm2 binds via p53; purified recombinant protein; protein details: GST (S. japonicum, pGEX-2T) N-terminal on hdm2; label: 33P 5' end

AGCTTAGACATGCCTAGACATGCCTA / AGCTTAGGCATGTCTAGGCATGTCTA [p53 consensus site oligonucleotide I/II]
binding result: binds
